Data as given in the supplement of paper PMC10849652.
The other results are listed elsewhere or left out.

Sequences of proteins named here, by UniProt entry; tags and fusion partners are left off. A change or cut given only in a name is not applied to a line headed by its entry.
UniProt P25815: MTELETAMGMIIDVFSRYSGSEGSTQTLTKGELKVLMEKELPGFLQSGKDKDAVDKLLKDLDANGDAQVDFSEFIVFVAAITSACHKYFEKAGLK
UniProt Q9BQF6: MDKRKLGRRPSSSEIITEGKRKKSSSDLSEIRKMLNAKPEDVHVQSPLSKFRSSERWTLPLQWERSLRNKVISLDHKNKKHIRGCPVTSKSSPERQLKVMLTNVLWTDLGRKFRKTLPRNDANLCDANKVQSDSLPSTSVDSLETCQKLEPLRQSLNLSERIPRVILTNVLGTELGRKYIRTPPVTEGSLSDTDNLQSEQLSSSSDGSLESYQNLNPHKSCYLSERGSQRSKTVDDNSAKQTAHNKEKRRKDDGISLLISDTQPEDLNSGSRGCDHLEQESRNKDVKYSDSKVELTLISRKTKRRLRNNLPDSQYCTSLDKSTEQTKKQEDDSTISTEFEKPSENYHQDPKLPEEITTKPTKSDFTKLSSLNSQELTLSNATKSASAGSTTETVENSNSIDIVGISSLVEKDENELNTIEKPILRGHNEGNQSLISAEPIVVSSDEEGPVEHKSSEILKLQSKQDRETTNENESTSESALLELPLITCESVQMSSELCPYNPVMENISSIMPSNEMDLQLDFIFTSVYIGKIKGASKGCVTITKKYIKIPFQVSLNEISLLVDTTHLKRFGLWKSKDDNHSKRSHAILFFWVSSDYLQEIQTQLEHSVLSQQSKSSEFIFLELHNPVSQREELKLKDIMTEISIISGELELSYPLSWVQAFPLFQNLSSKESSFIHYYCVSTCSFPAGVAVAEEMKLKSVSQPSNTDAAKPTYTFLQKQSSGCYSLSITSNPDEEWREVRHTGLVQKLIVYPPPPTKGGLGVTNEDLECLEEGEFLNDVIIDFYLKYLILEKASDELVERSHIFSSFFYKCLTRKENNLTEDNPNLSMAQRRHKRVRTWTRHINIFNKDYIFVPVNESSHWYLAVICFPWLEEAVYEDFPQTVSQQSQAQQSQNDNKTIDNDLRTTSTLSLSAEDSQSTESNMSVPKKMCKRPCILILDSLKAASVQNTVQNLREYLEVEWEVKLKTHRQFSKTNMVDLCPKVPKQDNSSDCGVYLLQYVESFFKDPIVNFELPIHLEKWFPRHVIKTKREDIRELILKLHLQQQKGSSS
UniProt Q14160: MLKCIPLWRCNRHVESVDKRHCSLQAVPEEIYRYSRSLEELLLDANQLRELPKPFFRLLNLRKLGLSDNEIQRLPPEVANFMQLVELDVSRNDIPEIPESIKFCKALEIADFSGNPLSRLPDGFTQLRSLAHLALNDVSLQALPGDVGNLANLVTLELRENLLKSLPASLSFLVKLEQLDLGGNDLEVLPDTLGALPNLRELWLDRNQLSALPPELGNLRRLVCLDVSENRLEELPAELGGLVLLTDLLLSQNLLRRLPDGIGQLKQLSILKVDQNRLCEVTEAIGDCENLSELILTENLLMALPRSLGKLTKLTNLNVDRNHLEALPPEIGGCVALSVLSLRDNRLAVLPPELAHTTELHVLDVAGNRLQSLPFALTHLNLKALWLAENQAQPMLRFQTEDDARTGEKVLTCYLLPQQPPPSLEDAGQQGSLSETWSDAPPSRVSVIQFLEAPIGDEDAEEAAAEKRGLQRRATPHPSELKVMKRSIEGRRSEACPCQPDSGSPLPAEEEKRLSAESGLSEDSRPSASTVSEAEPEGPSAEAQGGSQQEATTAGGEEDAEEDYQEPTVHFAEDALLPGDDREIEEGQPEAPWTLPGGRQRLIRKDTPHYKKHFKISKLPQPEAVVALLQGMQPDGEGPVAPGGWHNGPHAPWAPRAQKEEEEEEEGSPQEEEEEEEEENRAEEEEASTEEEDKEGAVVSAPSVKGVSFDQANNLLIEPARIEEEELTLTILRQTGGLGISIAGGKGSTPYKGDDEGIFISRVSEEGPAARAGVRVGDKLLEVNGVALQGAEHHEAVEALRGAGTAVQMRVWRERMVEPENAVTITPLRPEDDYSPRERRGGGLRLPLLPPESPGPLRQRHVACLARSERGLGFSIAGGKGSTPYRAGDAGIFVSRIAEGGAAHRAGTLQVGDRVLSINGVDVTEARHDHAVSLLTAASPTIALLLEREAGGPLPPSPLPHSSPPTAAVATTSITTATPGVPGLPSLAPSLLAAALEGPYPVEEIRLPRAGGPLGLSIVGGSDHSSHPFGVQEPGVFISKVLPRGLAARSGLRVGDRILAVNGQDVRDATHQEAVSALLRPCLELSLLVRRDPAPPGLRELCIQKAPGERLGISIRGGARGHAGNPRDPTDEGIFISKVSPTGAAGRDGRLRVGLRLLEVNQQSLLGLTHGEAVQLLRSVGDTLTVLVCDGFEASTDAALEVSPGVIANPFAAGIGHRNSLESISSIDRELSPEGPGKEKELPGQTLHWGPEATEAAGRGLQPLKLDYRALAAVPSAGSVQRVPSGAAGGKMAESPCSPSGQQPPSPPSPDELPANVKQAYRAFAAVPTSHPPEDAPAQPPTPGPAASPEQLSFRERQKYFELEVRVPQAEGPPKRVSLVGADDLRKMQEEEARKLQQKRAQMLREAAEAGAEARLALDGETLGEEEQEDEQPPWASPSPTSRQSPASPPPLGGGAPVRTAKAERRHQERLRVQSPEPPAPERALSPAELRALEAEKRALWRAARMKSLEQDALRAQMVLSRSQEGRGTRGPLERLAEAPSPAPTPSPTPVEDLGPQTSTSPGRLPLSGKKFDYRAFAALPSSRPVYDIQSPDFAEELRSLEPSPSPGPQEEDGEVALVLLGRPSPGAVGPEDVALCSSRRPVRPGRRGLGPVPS
UniProt O95969: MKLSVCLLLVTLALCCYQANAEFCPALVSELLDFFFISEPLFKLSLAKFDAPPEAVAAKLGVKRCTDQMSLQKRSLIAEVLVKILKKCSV
UniProt Q9UGP8: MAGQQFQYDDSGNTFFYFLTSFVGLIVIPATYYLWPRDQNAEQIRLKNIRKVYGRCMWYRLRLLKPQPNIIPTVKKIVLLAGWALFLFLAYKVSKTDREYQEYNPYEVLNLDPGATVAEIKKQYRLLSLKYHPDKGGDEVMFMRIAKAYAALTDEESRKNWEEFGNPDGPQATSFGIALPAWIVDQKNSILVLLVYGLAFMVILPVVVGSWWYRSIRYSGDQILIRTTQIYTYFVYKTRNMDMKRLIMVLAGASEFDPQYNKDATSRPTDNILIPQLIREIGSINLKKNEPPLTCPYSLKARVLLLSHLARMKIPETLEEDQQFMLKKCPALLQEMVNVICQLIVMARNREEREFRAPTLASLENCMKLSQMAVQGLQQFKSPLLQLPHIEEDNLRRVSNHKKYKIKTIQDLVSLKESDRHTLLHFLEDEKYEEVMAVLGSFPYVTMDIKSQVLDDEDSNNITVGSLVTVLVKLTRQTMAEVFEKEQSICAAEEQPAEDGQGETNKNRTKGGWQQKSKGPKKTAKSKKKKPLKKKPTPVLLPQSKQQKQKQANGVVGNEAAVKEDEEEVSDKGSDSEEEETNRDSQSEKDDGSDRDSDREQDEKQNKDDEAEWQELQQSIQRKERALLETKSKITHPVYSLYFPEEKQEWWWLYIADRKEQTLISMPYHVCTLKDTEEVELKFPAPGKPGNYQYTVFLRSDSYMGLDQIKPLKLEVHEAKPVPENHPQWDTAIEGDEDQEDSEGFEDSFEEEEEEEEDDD
UniProt Q96GA7: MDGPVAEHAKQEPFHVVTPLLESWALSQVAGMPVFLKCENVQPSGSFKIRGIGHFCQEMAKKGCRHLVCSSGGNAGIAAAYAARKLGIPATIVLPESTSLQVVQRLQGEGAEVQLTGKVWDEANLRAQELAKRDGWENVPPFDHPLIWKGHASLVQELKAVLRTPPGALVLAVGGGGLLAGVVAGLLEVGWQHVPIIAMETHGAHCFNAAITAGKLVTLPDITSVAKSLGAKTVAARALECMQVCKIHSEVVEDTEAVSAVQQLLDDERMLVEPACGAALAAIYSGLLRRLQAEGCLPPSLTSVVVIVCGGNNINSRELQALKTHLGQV
UniProt Q9NXZ1: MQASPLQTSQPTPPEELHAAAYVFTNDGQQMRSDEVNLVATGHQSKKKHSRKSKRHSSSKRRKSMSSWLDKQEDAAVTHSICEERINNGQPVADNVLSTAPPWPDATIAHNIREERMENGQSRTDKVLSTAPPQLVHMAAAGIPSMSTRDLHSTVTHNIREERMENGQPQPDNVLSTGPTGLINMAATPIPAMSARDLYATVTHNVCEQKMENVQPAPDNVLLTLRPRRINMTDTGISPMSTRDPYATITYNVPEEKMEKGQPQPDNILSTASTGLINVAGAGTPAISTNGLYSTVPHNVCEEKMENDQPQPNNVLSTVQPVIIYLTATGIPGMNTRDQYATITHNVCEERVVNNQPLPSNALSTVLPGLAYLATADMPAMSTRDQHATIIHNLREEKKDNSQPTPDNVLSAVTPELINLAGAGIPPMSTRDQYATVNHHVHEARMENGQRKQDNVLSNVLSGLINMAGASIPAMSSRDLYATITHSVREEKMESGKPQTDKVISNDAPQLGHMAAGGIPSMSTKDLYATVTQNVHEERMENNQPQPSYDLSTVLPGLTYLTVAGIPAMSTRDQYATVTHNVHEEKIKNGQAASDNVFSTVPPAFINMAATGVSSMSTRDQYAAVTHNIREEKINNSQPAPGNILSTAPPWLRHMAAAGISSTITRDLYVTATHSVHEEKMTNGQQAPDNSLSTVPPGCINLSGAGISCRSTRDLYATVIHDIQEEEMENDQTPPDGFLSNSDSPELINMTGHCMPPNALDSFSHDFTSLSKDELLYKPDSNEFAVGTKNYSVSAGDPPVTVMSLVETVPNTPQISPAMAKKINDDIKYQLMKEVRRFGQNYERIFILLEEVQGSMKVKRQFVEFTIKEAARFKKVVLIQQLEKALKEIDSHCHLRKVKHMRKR
UniProt Q99611, whole entry, looked up: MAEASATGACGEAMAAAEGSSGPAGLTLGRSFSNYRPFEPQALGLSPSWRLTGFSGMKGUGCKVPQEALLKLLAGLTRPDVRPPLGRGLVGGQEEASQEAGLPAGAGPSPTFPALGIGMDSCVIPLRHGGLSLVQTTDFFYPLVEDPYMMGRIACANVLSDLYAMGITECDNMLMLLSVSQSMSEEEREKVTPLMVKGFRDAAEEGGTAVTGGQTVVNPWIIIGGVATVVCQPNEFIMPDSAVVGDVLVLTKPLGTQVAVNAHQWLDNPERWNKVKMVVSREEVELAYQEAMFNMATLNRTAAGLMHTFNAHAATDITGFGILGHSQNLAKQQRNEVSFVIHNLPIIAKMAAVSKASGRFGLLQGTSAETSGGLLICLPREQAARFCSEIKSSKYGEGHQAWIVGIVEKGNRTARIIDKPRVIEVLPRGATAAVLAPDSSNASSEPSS
UniProt Q96BU1: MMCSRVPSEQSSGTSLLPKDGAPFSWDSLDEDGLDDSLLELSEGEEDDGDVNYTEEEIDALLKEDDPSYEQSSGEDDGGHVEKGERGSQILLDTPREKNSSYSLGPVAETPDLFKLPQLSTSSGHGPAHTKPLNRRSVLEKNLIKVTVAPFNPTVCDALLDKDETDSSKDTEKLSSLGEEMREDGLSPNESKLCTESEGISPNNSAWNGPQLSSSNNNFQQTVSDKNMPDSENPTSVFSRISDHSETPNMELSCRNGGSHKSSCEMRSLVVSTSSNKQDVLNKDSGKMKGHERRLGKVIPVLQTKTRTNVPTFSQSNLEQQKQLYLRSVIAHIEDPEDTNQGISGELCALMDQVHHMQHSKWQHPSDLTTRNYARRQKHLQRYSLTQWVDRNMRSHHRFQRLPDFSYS
UniProt Q8WXD2: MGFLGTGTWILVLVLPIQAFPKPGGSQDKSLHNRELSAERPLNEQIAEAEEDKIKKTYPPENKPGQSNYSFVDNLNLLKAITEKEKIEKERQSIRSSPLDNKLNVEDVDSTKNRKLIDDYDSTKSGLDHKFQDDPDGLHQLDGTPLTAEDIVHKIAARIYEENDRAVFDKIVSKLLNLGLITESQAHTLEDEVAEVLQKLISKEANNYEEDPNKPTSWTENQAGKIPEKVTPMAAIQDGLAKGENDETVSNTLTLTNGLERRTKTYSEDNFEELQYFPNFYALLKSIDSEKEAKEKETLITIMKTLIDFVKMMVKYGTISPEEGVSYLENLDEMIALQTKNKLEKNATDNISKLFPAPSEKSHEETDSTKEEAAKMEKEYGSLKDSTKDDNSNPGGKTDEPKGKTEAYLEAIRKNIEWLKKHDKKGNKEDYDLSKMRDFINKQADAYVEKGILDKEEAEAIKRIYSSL
UniProt O00560: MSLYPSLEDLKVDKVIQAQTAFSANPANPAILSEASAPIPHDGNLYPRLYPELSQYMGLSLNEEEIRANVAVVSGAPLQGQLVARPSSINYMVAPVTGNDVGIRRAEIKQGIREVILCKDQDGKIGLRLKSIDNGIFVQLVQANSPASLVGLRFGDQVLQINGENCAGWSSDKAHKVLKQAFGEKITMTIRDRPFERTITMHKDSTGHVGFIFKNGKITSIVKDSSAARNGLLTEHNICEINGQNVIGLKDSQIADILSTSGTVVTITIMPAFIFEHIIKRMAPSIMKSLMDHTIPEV

Columns and labels:
Assay in all cases: log2 fold change, soluble protein after heating vs DMSO (PISA); higher = thermal stabilisation; K562 lysate, 10 uM; active = over 0.2 and 3.5 SD of the protein, either way, in both replicates (recomputed)
nilotinib = compound: Cc1cn(-c2cc(NC(=O)c3ccc(C)c(Nc4nccc(-c5cccnc5)n4)c3)cc(C(F)(F)F)c2)cn1 [nilotinib]
How it was run: (§1)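 Pellets of K562 cells were dounce-homogenised in PBS pH 7.4 with 1 mM MgCl2, and the crude extract was held at 1 mg/mL protein for a 30 min treatment with 10 μM compound. Aliquots were heated for 3 min over 48°C-58°C and pooled before NP-40 was added to 0.5% at 4°C. The supernatant from 21,000xg for 90 min was quantified by TMTpro 16plex LC-MS/MS with channel sums equalised. Values are reported from duplicates as log-two fold change in thermal stability relative to solvent controls.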

[1] = compound: Cc1nc(Nc2n[nH]c3c2CN(C(=O)N[C@H](CN(C)C)c2ccccc2)C3(C)C)c2sccc2n1
How it was run: as §1

dasatinib = compound: Cc1nc(Nc2ncc(C(=O)Nc3c(C)cccc3Cl)s2)cc(N2CCN(CCO)CC2)n1 [dasatinib]
How it was run: as §1

[2] = compound: Cc1ncc(-c2ccnc(Nc3ccc(S(C)(=O)=O)cc3)n2)n1C(C)C
How it was run: as §1

[3] = compound: Cn1cc(-c2ccc3c(c2)CCN3C(=O)Cc2cccc(C(F)(F)F)c2)c2c(N)ncnc21
How it was run: as §1

quisinostat = compound: Cn1cc(CNCC2CCN(c3ncc(C(=O)NO)cn3)CC2)c2ccccc21 [quisinostat]
How it was run: as §1

tipifarnib = compound: Cn1cncc1[C@@](N)(c1ccc(Cl)cc1)c1ccc2c(c1)c(-c1cccc(Cl)c1)cc(=O)n2C [tipifarnib]
How it was run: as §1

[4] = compound: NC(=O)Nc1cc(-c2cccc(F)c2)sc1C(=O)N[C@H]1CCCNC1
How it was run: as §1

[5] = compound: NC(=O)c1cnc(N[C@@H]2CCCC[C@@H]2N)nc1Nc1cccc(-n2nccn2)c1
How it was run: as §1

[6] = compound: NC1(c2ccc(-c3nc4ccn5c(=O)[nH]nc5c4cc3-c3ccccc3)cc2)CCC1
How it was run: as §1

[7] = compound: NCC(=O)Nc1ccc(-n2nc(C(F)(F)F)cc2-c2ccc3c(ccc4ccccc43)c2)cc1
How it was run: as §1

vorinostat = compound: O=C(CCCCCCC(=O)Nc1ccccc1)NO [vorinostat]
How it was run: as §1

silmitasertib = compound: O=C(O)c1ccc2c(c1)nc(Nc1cccc(Cl)c1)c1ccncc12 [silmitasertib]
How it was run: as §1

[8] = compound: O=C1NC(=O)C(c2cnc3ccccn23)=C1c1cn2c3c(cc(F)cc13)CN(C(=O)N1CCCCC1)CC2
How it was run: as §1

entospletinib = compound: c1cn2cc(-c3ccc4cn[nH]c4c3)nc(Nc3ccc(N4CCOCC4)cc3)c2n1 [entospletinib]
How it was run: as §1

Measured: log2 fold change

S100P (UniProt P25815)
inactive: nilotinib 0.126 | [1] 0.103 | dasatinib 0.071 | [2] 0.123 | [3] -0.041 | quisinostat 0.055 | tipifarnib 0.035 | [4] -0.075 | [5] -0.038 | [6] 0.002 | [7] -0.083 | vorinostat 0.173 | silmitasertib -0.102 | [8] 0.046 | entospletinib -0.081

SEL1L3 (UniProt Q68CR1)
inactive: nilotinib 0.044 | [1] -0.146 | dasatinib -0.102 | [2] -0.088 | [3] -0.028 | quisinostat -0.064 | tipifarnib -0.177 | [4] 0.11 | [6] 0.003 | [7] 0.05 | vorinostat 0.068 | silmitasertib -0.052 | [8] 0.002 | entospletinib 0.057

SCYL3 isoform 2 (UniProt Q8IZE3)
inactive: nilotinib -0.053 | [1] 0.004 | dasatinib -0.113 | [2] 0.012 | [3] 0.031 | quisinostat -0.115 | tipifarnib -0.152 | [4] 0.024 | [6] -0.031 | [7] -0.014 | vorinostat -0.053 | silmitasertib 0.046 | [8] 0.028 | entospletinib 0.035

SENP7 (UniProt Q9BQF6)
inactive: nilotinib 0.231 | [1] -0.142 | dasatinib -0.033 | [2] 0.052 | [3] 0.122 | quisinostat -0.103 | tipifarnib 0.13 | [4] 0.098 | [8] -0.091 | entospletinib -0.012

SELENOO (UniProt Q9BVL4)
inactive: nilotinib -0.201 | [1] 0.062 | dasatinib 0.09 | [2] -0.094 | [3] -0.149 | tipifarnib 0.03 | [5] -0.156

SELENOT (UniProt P62341)
inactive: nilotinib 0.017 | [1] 0.064 | dasatinib 0.212 | [2] 0.021 | [3] 0.148 | quisinostat 0.048 | tipifarnib 0.011 | [4] -0.012 | [5] 0.013 | [6] -0.126 | vorinostat 0.018 | silmitasertib -0.082 | [8] -0.08 | entospletinib 0.115

SCRIB (UniProt Q14160)
inactive: nilotinib -0.018 | [1] 0.014 | dasatinib -0.02 | [2] -0.013 | [3] 0.004 | quisinostat -0.061 | tipifarnib -0.051 | [4] 0.069 | [5] 0.01 | [6] 0.008 | [7] 0.027 | vorinostat -0.184 | silmitasertib -0.012 | [8] -0.054 | entospletinib 0.004

SCGB1D2 (UniProt O95969)
inactive: nilotinib 0.056 | [1] 0.21 | dasatinib 0.207 | [2] -0.097 | [3] 0.293 | quisinostat 0.203 | tipifarnib -0.357 | [4] -0.43 | [5] 0.369 | [6] 0.211 | vorinostat 0.497 | silmitasertib -0.35 | [8] 0.097 | entospletinib -0.26

SAMD1 (UniProt Q6SPF0)
inactive: nilotinib 0.102 | [1] -0.021 | dasatinib 0.031 | [2] -0.022 | [3] 0.007 | quisinostat -0.037 | tipifarnib 0.068 | [4] 0.042 | [5] 0.008 | [8] 0.034 | entospletinib 0.034

SEC63 (UniProt Q9UGP8)
inactive: nilotinib -0.01 | [1] -0.011 | dasatinib 0.021 | [2] -0.026 | [3] -0.004 | quisinostat 0.026 | tipifarnib -0.018 | [4] -0.009 | [5] 0.039 | [6] 0.006 | [7] 0.023 | vorinostat 0.068 | silmitasertib -0.015 | [8] 0.001 | entospletinib -0.022

SCNM1 (UniProt Q9BWG6)
inactive: nilotinib -0.078 | [1] -0.045 | dasatinib 0.122 | [2] -0.091 | [3] 0.015 | quisinostat -0.061 | tipifarnib 0.045 | [4] 0.06 | [5] -0.104 | [6] -0.106 | vorinostat -0.13 | silmitasertib -0.102 | [8] -0.082 | entospletinib 0.092

SDSL (UniProt Q96GA7)
inactive: nilotinib 0.054 | [1] 0.009 | dasatinib 0.024 | [2] -0.021 | [3] -0.02 | quisinostat 0.077 | tipifarnib -0.021 | [4] -0.022 | [5] -0.029 | [6] 0.027 | [7] -0.031 | vorinostat 0.108 | silmitasertib 0 | [8] 0.111 | entospletinib 0.004

SDF2 (UniProt Q99470)
inactive: nilotinib 0.157 | [1] 0.054 | [2] 0.202 | quisinostat -0.13 | tipifarnib -0.156 | [4] -0.03 | [5] -0.182 | [8] 0.125

SAGE1 (UniProt Q9NXZ1)
inactive: nilotinib 0.064 | [1] 0.007 | dasatinib -0.046 | [2] 0.073 | [3] -0.069 | quisinostat 0.008 | tipifarnib -0.071 | [4] 0.032 | [6] -0.127 | vorinostat 0.023 | silmitasertib -0.023 | [8] -0.018 | entospletinib -0.088

SEPHS2 (UniProt Q99611)
inactive: nilotinib -0.012 | [1] 0.015 | dasatinib 0 | [2] -0.028 | [3] -0.018 | quisinostat -0.042 | tipifarnib -0.009 | [4] -0.013 | [5] 0.001 | [6] 0.026 | [7] 0.012 | vorinostat 0.092 | silmitasertib -0.028 | [8] 0 | entospletinib -0.024

SAFB2 (UniProt K7EQU4)
inactive: nilotinib 0.074 | [1] -0.032 | dasatinib -0.006 | [2] 0.005 | [3] -0.149 | quisinostat -0.13 | tipifarnib 0.042 | [4] 0.062 | [8] -0.063

S100PBP (UniProt Q96BU1)
inactive: nilotinib 0.076 | [1] -0.024 | dasatinib -0.009 | [2] 0.006 | [3] -0.007 | quisinostat -0.058 | tipifarnib 0.051 | [4] 0.081 | [5] 0.052 | [6] -0.009 | [7] -0.209 | vorinostat -0.077 | silmitasertib 0.04 | [8] -0.025 | entospletinib 0.049

Quoted at random: 2 entries already listed
S100PBP (UniProt Q96BU1)
inactive: nilotinib 0.076 | [1] -0.024 | dasatinib -0.009 | [2] 0.006 | [3] -0.007 | quisinostat -0.058 | tipifarnib 0.051 | [4] 0.081 | [5] 0.052 | [6] -0.009 | [7] -0.209 | vorinostat -0.077 | silmitasertib 0.04 | [8] -0.025 | entospletinib 0.049

SEPHS2 (UniProt Q99611)
inactive: nilotinib -0.012 | [1] 0.015 | dasatinib 0 | [2] -0.028 | [3] -0.018 | quisinostat -0.042 | tipifarnib -0.009 | [4] -0.013 | [5] 0.001 | [6] 0.026 | [7] 0.012 | vorinostat 0.092 | silmitasertib -0.028 | [8] 0 | entospletinib -0.024

(further entries)

SCG3 (UniProt Q8WXD2)
inactive: nilotinib 0.038 | [1] 0.12 | dasatinib 0.004 | [2] -0.02 | [3] 0.006 | quisinostat 0.008 | tipifarnib -0.045 | [4] -0.039 | [6] -0.005 | [7] -0.065 | vorinostat 0.057 | silmitasertib -0.031 | [8] -0.026 | entospletinib -0.083

SDCBP isoform 2 (UniProt O00560)
inactive: nilotinib 0.141 | [1] 0.007 | dasatinib 0.052 | [2] -0.261 | [3] 0.042 | quisinostat 0.019 | tipifarnib 0.108 | [4] -0.049 | [6] -0.124 | vorinostat 0.078 | silmitasertib 0.003 | [8] 0.222
